Results reported in PubChem BioAssay (EPA / NIEHS).
Values joined by “and” are separate entries in the source; they are usually repeats but may differ in a detail not shown here. Equal entries are not always repeated. The shares of active, inactive and inconclusive entries below differ from those in the screen. A potency beside an inconclusive call is a rough fit, not a confirmed value. Active and inactive are the calls of the source. How the source made its calls: active means hit-call score of the fitted dose curve at least 0.9, where 1 is the maximum; inconclusive means response in the unintended direction; inactive means score below 0.9.

Sequences of proteins named here, by UniProt entry; tags and fusion partners are left off.
UniProt P04637, whole entry, looked up: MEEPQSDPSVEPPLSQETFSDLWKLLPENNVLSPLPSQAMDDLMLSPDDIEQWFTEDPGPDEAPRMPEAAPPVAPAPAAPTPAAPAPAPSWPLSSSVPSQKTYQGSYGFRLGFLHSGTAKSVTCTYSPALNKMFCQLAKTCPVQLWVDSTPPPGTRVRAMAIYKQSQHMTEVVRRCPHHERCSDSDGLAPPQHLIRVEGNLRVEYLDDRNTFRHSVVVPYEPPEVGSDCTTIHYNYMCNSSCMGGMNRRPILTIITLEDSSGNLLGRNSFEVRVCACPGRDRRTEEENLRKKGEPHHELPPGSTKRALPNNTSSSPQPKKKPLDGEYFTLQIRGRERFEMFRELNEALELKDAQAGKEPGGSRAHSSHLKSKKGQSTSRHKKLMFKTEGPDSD

These molecules were tested against Cellular tumor antigen p53 (Homo sapiens) (UniProt P04637) (assay: TOX21_p53_BLA_p3_ratio: Tox21 HCT-116 p53 Agonism Beta-lactamase Assay, Ratio, Phase 3 (AID 2283596)).
Summary of the method: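 Cells were seeded at 4000/well, rested 5 h at 37C, then dosed with DMSO compound solutions (217-fold dilution) for 16 h. CCF4-AM substrate was loaded for 2 h at room temperature, and the 460/530 nm emission ratio was fitted for gain of signal versus DMSO.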
In the case of `C[C@H](O)C(=O)Nc1c(I)c(C(=O)NC(CO)CO)c(I)c(C(=O)NC(CO)CO)c1I`, the outcome is reported as “inactive”. `CC1(C)S[C@@H]2[C@H](NC(=O)[C@@H](NC(=O)N3CCNC3=O)c3ccccc3)C(=O)N2[C@H]1C(=O)O` was tested, and the AC50 was inconclusive: 10.3 µM. With `CC(C)CNCC(C)C` the AC50 was inconclusive: 45.7 µM. For `CCC(=O)OCC(=O)[C@@]1(OC(=O)CC)[C@@H](C)C[C@H]2[C@@H]3CCC4=CC(=O)C=C[C@]4(C)[C@@]3(F)[C@@H](O)C[C@@]21C`, the AC50 was inconclusive: 23 µM. In the case of `O=c1[nH]cnc2ccccc12`, the AC50 is reported as inconclusive: 47.3 µM. In the case of `CCCCOCCOC(=O)CCCCCCCCC(=O)OCCOCCCC`, the AC50 is reported as inconclusive: 46.1 µM. In the case of `CCCCOc1ccc(OCCCN2CCOCC2)cc1`, the outcome is reported as “inactive”. In the case of `C=CCSSSCC=C`, the AC50 is reported as active: 8.68 µM. `C=C(C)c1ccccc1` was tested, and the outcome was “inactive”. For `CC(C)(CCl)c1ccccc1`, the AC50 was inconclusive: 44.7 µM. In the case of `ONc1ccccc1`, the AC50 is reported as inconclusive: 50.3 µM. In the case of `CC1(C)OC(=O)NC1=O`, the AC50 is reported as inconclusive: 23 µM. `CCOC(=O)C1=C[C@]2(CC)CCCN3CCc4c(n1c1ccccc41)[C@@H]32` was tested, and the AC50 was inconclusive: 23 µM. `O=[N+]([O-])c1cc(C2CCCCC2)c(O)c([N+](=O)[O-])c1` was tested, and the AC50 was active: 0.902 µM. For `Nc1ccccc1S(=O)(=O)O`, the AC50 was inconclusive: 78.1 µM. For `CCN1CCCC1CNC(=O)c1cc(S(=O)(=O)CC)c(N)cc1OC` (stereo not given), the AC50 was inconclusive: 23 µM. With `CC/C=C(\C(=O)N[C@@H]1C(=O)N2C(C(=O)OCOC(=O)C(C)(C)C)=C(COC(N)=O)CS[C@H]12)c1csc(N)n1` the AC50 was inconclusive: 39 µM and inconclusive: 23 µM. With `C=CC(=O)[O-].C=CC(=O)[O-].[Zn+2]` the outcome was “inactive”. In the case of `C[C@H](CCC(=O)O)[C@H]1CC[C@H]2[C@@H]3[C@H](O)C[C@@H]4C[C@H](O)CC[C@]4(C)[C@H]3CC[C@]12C`, the AC50 is reported as inconclusive: 10.3 µM. For `CC(=O)O[C@H]1C[C@@H]2CC[C@@H]3[C@H](CC[C@@]4(C)[C@H]3C[C@H](N3CC[N+](C)(C)CC3)[C@@H]4OC(C)=O)[C@@]2(C)C[C@@H]1N1CC[N+](C)(C)CC1`, the AC50 was inconclusive: 23 µM. `Cc1cc(N)no1` was tested, and the AC50 was inconclusive: 89.7 µM. With `OC[C@H]1O[C@@H](O[C@@H]2[C@@H](CO)O[C@](O)(CO)[C@H]2O)[C@H](O)[C@@H](O)[C@H]1O` the AC50 was inconclusive: 23 µM. With `CC(C)NCC(O)COc1ccc(CCOCC2CC2)cc1` (stereo not given) the AC50 was inconclusive: 23 µM. `CCN(CC)c1cccc(O)c1` was tested, and the outcome was “inactive”. With `Nc1c(N=Nc2ccc(-c3ccc(N=Nc4cc(S(=O)(=O)O)c5ccccc5c4N)cc3)cc2)cc(S(=O)(=O)O)c2ccccc12` the AC50 was inconclusive: 23 µM.
